The text below walks through data of article PMC9292107.

Amino acid sequences for entries named in this document (tags omitted).
UniProt Q9ET78: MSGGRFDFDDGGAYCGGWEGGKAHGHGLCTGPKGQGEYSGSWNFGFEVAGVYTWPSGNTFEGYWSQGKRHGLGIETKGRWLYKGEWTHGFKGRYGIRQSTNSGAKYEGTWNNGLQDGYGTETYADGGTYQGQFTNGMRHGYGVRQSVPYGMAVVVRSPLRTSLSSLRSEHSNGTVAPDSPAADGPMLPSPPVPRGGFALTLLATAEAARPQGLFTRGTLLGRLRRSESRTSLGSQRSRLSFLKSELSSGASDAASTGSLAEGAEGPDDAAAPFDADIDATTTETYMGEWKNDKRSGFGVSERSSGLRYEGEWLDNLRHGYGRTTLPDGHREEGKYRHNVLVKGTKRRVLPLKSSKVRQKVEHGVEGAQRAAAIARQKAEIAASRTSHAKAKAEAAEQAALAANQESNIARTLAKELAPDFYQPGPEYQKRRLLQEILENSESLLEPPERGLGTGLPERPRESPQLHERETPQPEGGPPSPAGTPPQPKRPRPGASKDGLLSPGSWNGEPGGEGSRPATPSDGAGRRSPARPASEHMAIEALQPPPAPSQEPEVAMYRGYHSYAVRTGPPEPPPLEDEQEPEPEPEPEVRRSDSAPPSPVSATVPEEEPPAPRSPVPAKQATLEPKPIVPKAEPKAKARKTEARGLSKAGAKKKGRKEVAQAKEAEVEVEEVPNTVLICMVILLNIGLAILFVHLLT
UniProt P37804: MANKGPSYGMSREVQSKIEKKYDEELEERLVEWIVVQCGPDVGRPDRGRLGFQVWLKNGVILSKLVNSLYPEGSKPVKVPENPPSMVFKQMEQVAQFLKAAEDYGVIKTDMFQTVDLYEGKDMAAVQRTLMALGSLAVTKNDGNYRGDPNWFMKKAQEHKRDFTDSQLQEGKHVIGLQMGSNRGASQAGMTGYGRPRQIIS

Results are given in words; binding and its absence hold for the method and conditions named. In cells and extracts the contact can be indirect. Some results given as binding are weak or reduced against the parent protein; the word gives no strength.

Holding throughout (test): co-IP; endogenous proteins in extracts of mouse cardiomyocytes / heart (WT; for actin-Cav3 also SM22α KO); IgG as negative control; Western blot
In general terms: In western blotting, separated proteins are transferred to a membrane and probed.

For assay [1], the target named is caveolin-3 (Cav3) (mouse (endogenous in cardiomyocytes)) (UniProt P51637).
Assay [2] deals with JPH2 (mouse (endogenous in cardiomyocytes)) (UniProt Q9ET78).
For assay [3], the target named is Smooth muscle 22-alpha (SM22α) (mouse (endogenous in cardiomyocytes)) (UniProt P37804).

As to “Smooth muscle 22-alpha (SM22α) (from UniProt P37804 1-201)”, the binding entry in assay [1] and in assay [2] was “binds” throughout.

B1: caveolin-3 (Cav3) (protein, UniProt P51637 1-151)
chain: MMTEEHTDLEARIIKDIHCKEIDLVNRDPKNINEDIVKVDFEDVIAEPEGTYSFDGVWKVSFTTFTVSKYWCYRLLSTLLGVPLALLWGFLFACISFCHIWAVVPCIKSYLIEIQCISHIYSLCIRTFCNPLFAALGQVCSNIKVVLRREG
B1: in assay [3], the binding result is listed as “binds”.
